Assay results as given in the supplement of paper PMC12889115.
This is one part of the list. These are raw signals, not scaled to a control.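 First-pass screen: polymyxin B was added at a level that permeabilizes the Salmonella outer membrane while sparing the inner membrane. DMSO wells, with and without polymyxin B, defined maximum growth. Because plates differed from one another, each plate's data were ranked separately and the compounds with the lowest OD600 were carried forward as hits.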

System: Salmonella enterica serovar Typhimurium SL1344
Assay: bacterial growth OD600 after 18 h with compound and polymyxin B; higher = more bacterial growth (less inhibition)
Settings: 50 µM, Mueller-Hinton broth

SMILES | bacterial growth OD600 (polymyxin B 1 µg/mL) | bacterial growth OD600 (polymyxin B 0.75 µg/mL)
CCOC(=O)C1(Cc2ccccc2C(F)(F)F)CCN(C(=O)Cc2nonc2C)CC1 | 0.768 | –
CCn1ccnc1CN1CCCC1C(=O)Nc1ccc(-c2cccc(F)c2)cc1 (stereo not given) | 0.018 | –
O=C(NCC(F)(F)F)c1coc(COc2ccccc2)n1 | – | 0.791
Cc1ccc(C(=O)N2CCCC(N3CCN(c4ccccc4C)CC3)C2)cc1 (stereo not given) | 0.817 | –
CCn1ncc(CN(C)CC2CCCN(CCc3ccccc3OC)C2)c1C (stereo not given) | 0.904 | –
CN(C)c1ncc2c(n1)CCCC2NC(=O)CN1CCCCC1 (stereo not given) | – | 0.814
COCc1nc2cc(NC(=O)Cc3ccccc3)cc(C(=O)N3CCCC(c4ccccc4)C3)c2n1C (stereo not given) | – | 0.688
Cn1ccnc1CN1CCC(C2CCN(c3ncccn3)CC2)C1 (stereo not given) | – | 0.795
CCN1CCN(C2(C(=O)N3CCCCO3)Cc3ccccc3C2)CC1 | – | 0.913
COc1cc(-c2cnnc(NCCCN3CCCC3=O)n2)cc(OC)c1OC | 1.21 | –
CCN(CC)C(=O)C1CCN(C(=O)CC2(c3cccc(C(F)(F)F)c3)CC(=O)N(CC)C2=O)CC1 (stereo not given) | – | 0.77
OC(Cc1ccccc1)c1ccc2c(c1)CN(Cc1c[nH]nc1-c1ccccc1)CCO2 (stereo not given) | – | 0.667
CN(C)S(=O)(=O)NC1CC(=O)N(CC2CCCCC2)C1 (stereo not given) | 0.874 | –
COCCN(C(=O)c1ccc(OC2CCN(C(C)=O)CC2)c(OC)c1)C(C)C | 0.942 | –
COc1ccccc1C(=O)Nc1ccc2c(c1)CN(C(=O)c1ccsc1)CC2 | 0.657 | –
CCOC(=O)C1(Cc2ccc(OC)cc2)CCN(C(=O)c2ccc3oc(C)cc3c2)CC1 | 0.004 | –
CCc1ccc(CN2CCC(Oc3cc(OC)ccc3C(=O)NCCOC)CC2)o1 | 0.999 | –
COC(=O)CCC(=O)N1CCC2(CCCN(Cc3cccc(F)c3F)C2)C1 (stereo not given) | 0.888 | –
CN(C(=O)c1cccs1)C(Cc1ccccc1F)C1CCN(Cc2cccc3cccnc23)CC1 (stereo not given) | – | 0.784
O=C1CCC(CCNCc2cc3c(cc2Cl)OCO3)N1Cc1cccc(OC(F)(F)F)c1 (stereo not given) | – | 0.784
CCOC(=O)C1(CC2CC2)CCN(C/C=C/c2ccccc2OC)CC1 | 0.864 | –
C=CCO[C@H]1[C@H](NC(=O)COC)c2ccccc2C12CCN(C(=O)c1ccccc1SC)CC2 | – | 0.929
Cc1ccc(CN2CCCC(CO)(Cc3ccccc3)C2)cc1C (stereo not given) | 0.883 | –
CCOc1ccc2nc(N3CCCC(C(=O)N4CCC(OC)CC4)C3)nc(C)c2c1 (stereo not given) | – | 0.843
CCN1CCCC1CNC(=O)CCC1CCN(Cc2cn(CC)c3ccccc23)CC1 (stereo not given) | – | 0.876
COc1ccc(OCC(O)CN2CCC(O)CC2)c(CNC2Cc3ccccc3C2)c1 (stereo not given) | 1.04 | –
CCOC(=O)C1(Cc2ccccc2Cl)CCN(Cc2cccc3c2OCO3)CC1 | 0.838 | –
CCCCc1nc2cc(C(=O)NCc3nc(C)c[nH]3)ccc2o1 | – | 0.771
CCC(COC)NC(=O)C1CCCN(c2nc(C)c3ccc(S(C)(=O)=O)cc3n2)C1 (stereo not given) | – | 0.779
CCOC(=O)C1(CCc2ccccc2)CCN(Cc2ccc(O)cc2)CC1 | 0.869 | –

Shown as labelled records: part of the list above
CCn1ncc(CN(C)CC2CCCN(CCc3ccccc3OC)C2)c1C (stereo not given)
  bacterial growth OD600 (polymyxin B 1 µg/mL): 0.904
CCOC(=O)C1(Cc2ccccc2Cl)CCN(Cc2cccc3c2OCO3)CC1
  bacterial growth OD600 (polymyxin B 1 µg/mL): 0.838
